Results published in patent US20150239963A1.
Substitutions are numbered along the chain they refer to. No constants are given. Whether binding was seen depends on the method and setting. Some results given as binding are weak or reduced against the parent protein; the word gives no strength. One block for each binder: values may come before it.

Amino acid sequences for entries named in this document (tags omitted). A change or cut given only in a name is not applied to a line headed by its entry. Chains listed by the source or under a name are the forms on record and can include a tag or linker.
UniProt P10636: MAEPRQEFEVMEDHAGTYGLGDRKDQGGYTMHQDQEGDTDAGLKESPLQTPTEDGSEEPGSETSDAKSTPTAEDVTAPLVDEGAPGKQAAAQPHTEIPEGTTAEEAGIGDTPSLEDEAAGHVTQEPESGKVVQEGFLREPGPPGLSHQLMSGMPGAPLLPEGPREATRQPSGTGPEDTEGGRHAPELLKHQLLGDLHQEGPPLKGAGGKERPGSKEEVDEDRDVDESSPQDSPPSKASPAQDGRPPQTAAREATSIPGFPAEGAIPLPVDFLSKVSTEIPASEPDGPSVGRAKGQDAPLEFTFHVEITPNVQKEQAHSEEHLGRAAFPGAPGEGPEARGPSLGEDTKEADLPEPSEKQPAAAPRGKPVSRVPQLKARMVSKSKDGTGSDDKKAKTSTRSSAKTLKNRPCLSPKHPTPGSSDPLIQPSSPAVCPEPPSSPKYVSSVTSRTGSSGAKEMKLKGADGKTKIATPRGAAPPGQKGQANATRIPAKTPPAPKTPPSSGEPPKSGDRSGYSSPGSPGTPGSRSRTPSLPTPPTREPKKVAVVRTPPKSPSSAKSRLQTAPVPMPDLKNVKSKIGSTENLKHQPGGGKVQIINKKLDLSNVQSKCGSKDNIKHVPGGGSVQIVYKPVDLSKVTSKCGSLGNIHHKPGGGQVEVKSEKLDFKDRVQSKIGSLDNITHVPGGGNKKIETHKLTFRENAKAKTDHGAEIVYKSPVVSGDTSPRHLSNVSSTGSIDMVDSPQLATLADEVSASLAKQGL
tau in iPSC-CN lysates (P10636, form named): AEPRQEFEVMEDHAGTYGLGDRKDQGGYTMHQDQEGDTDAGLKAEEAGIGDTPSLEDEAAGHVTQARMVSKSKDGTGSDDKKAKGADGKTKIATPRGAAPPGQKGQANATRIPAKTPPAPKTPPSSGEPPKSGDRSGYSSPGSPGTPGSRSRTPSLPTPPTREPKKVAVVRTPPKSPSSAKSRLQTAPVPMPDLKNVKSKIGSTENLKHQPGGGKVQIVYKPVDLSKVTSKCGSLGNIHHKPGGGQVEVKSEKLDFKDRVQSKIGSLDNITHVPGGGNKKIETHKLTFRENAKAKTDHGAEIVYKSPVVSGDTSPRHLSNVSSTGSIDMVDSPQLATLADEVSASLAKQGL
tau in AD brain lysates (P10636, form named): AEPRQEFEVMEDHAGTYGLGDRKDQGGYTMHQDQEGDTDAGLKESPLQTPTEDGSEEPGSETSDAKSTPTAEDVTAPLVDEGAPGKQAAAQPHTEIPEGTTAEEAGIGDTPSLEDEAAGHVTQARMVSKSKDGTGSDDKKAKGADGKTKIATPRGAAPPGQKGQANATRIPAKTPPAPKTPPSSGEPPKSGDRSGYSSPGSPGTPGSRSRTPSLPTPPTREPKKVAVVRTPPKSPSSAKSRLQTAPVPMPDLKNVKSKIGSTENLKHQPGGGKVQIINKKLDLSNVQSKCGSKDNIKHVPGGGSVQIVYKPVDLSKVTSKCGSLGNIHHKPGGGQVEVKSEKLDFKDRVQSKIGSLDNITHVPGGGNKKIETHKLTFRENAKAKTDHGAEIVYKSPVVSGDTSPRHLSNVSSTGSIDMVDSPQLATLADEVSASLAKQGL
tau of P301L tau transgenic mice (4R2N human tau mutated at P301L; brain cortex lysates, CSF) (P10636, form named): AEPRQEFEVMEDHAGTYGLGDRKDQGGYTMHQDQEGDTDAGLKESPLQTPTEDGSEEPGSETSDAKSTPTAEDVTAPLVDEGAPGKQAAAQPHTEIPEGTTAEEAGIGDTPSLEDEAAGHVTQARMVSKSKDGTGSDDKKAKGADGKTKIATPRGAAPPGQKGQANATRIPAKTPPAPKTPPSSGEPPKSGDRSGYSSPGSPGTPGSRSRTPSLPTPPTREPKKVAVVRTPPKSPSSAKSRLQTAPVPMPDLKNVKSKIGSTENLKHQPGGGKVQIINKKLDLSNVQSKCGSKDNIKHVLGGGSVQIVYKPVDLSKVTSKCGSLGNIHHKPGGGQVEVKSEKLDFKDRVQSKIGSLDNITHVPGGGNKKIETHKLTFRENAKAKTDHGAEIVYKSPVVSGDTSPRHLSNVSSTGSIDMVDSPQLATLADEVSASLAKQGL

Tests used:
[1] = target: tau in iPSC-CN lysates (human) (UniProt P10636); assay: Western blot, iPSC-CN lysates
[2] = target: tau in AD brain lysates (human) (UniProt P10636); assay: Western blot, AD brain lysates
[3] = target: tau in AD brain lysates (human) (UniProt P10636); assay: Western blot probed with the variant
[4] = target: tau in iPSC-CN lysates (human) (UniProt P10636); assay: Western blot probed with the variant
[5] = target: tau of P301L tau transgenic mice (4R2N human tau mutated at P301L; brain cortex lysates, CSF) (human) (UniProt P10636); assay: Western blot probed with the variant
[6] = target: tau of P301L tau transgenic mice (4R2N human tau mutated at P301L; brain cortex lysates, CSF) (human) (UniProt P10636); assay: Western blot, P301L tau mouse brain cortex lysates
full-length phospho-tau [7] = target: full-length phospho-tau (UniProt P10636); assay: sandwich ELISA, antibody coated, detection with biotin-BT2 + biotin-HT7
full-length phospho-tau [8] = target: full-length phospho-tau (UniProt P10636); assay: sandwich ELISA: antibody coated on the well, full-length phospho-tau added at 0-100 ng/ml, detection with biotin-labeled non-competitive anti-tau antibodies (biotin-BT2 + biotin-HT7), streptavidin-HRP, raw OD
[9] = target: tau of P301L tau transgenic mice (4R2N human tau mutated at P301L; brain cortex lysates, CSF) (human) (UniProt P10636); assay: Western blot probed with IPN001 of interstitial fluid

- binding [1]: binds
- binding [2]: binds
- binding [3]: binds
- binding [4]: binds
- binding [5]: binds
- binding [6]: binds
B1: humanized IPN002 variant VH2/Vk1 (antibody, V domains shown)
VH: EVHLVESGGALVKPGGSLRLSCAASGFSFSKYGMSWVRQAPGKGLEWVATISSSGSRTYYPDSVKGRFTISRDNAKNTLYLQMNSLRAEDTAMYYCSISWDGAMDYWGQGTTVTVSS
VL: DVLMTQSPLSLPVTLGQPASISCKSSQSIVHSNGNTYLEWYLQKPGQSPQLLVYKVSNRFSGVPDRFSGSGSGTDFTLKISRVEAEDVGTYYCFQGSLVPWAFGGGTKVEIK

- binding [1]: binds
- binding [2]: binds
- binding [3]: binds
- binding [4]: binds
- binding [5]: binds
- binding [6]: binds
B2: humanized IPN002 variant VH2/Vk2 (antibody, V domains shown)
VH: B1 VH
VL: B1 VL with L3V

- binding [1]: binds
- binding [2]: binds
- binding [3]: binds
- binding [4]: binds
- binding [5]: binds
- binding [6]: binds
B3: humanized IPN002 variant VH2/Vk3 (antibody, V domains shown)
VH: B1 VH
VL: B1 VL with L3V, T90V

- binding (full-length phospho-tau [7]): binds
- binding (full-length phospho-tau [8]): binds
B4: IPN002 (antibody, V domains shown)
VH: B1 VH with R19K, A40T, G42D, G44R, R67Q, N84S, R87K, A88S, T112S
VL: B1 VL with S7T, T14S, Q17D, P18Q, Q50K, V88L, V109L

- binding [9]: binds
B5: IPN001 (antibody, V domains shown)
VH: EVQLVESGEDLVKPGGSLKLSCVASGFAFSSYGMSWVRQTPDMRLEWVATISSSGSRTYFPDSVKGRLTISRDNDKNILYLQMSSLRSEDTAMYYCTITWDGAMDYWGRGISVTVSS
VL: DVLMTQTPLSLAVNLGDQASLSCRSSQTILHSNGNTYLEWYLQKPGQSPRLLIYKVSKRFSGVPDRFSGSGSGTDFTLKISRVEADDLGIYYCFQGSLVPWAFGGGTKLEIK
